# Results of single-concentration screens

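Whole-parasite assay of Trypanosoma brucei over 72 hours; the read-out is not stated. Compounds at 30 µM. The record gives no direction; compounds that gave an IC50 in retests scored well above the rest, so higher reads as stronger inhibition. Values scatter widely below zero; nearly all retest evidence comes from the higher of the two concentrations used. Size under these conditions: about 64,000 compounds, about 940 of them at 50% or above in at least one test.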

Values are the deposited “Percent Effect”, in %.
The controls that fix the scale are not given in the record; negative values are as filed.
This is an unselected part of the compounds tested.

structure,effect
CN1C2(CCN(Cc3ccc(F)cc3)C2)c2ccccc2S1(=O)=O (stereo unspecified),-53.78
O=C(N1CCOCC1)N1CCCC1c1nc(-c2ccccn2)no1 (stereo unspecified),-14.55
Cc1ccc(-n2c(COCC(=O)O)nc3c(C)cccc32)nc1,-6.276
CC(C)N(C)[C@@H]1CCN(C(=O)c2ccc[nH]2)[C@H]1Cc1cnn(C)c1,-21.33
COc1cccc(C(C(=O)O)N2CCC(Cn3cccn3)CC2)c1OC (stereo unspecified),-8.905
CC(Cc1ccccn1)N(C)C(=O)c1ncc[nH]1 (stereo unspecified),-8.353
CN1C(=O)CCN(C(=O)C2CCCCC2)c2ccccc21,-10.51
Cc1cc(F)ccc1NS(=O)(=O)c1cc2c(c(C(=O)O)c1)OCCO2,-16.53
O=C(O)C(F)(F)F.O=C(O)C(F)(F)F.[H][C@@]12CCN(C(=O)c3cnccn3)C[C@]1([H])[C@@H](CN1CCN(C)CC1)OC2,1.69
O=C(O)C(F)(F)F.[H][C@@]12COC[C@@H](C(=O)N3CCCCO3)[C@]1([H])CN(C1CCOCC1)C2,-17.73
Cc1cc(Cn2cc(C#N)c(=O)c3ccccc32)on1,-73.09
CC(c1ccco1)n1cc(-c2cc(CN3CCCC3)cs2)nn1 (stereo unspecified),-6.002
Cn1c(N2CCOCC2)nc2cc(C(=O)NCC(F)(F)F)ccc21,-16.42
N[C@H]1CN(C(=O)Cc2ccc(CO)cc2)C[C@@H]1C1CC1,-35.53
COc1ccc(-n2c(COC(C)C)n[nH]c2=O)cc1,-9.33
Cc1cc(C)n(CC2CCCN2CC(=O)Nc2cc(C(C)C)no2)n1 (stereo unspecified),-33.67
COc1nc(C)c(C(=O)NCc2cc(N3CCOCC3)ncn2)s1,-19.19
COCCO[C@H]1CCN(C(=O)c2cccnc2)[C@H]1Cc1cnn(C)c1.O=C(O)C(F)(F)F,-14.66
CS(=O)(=O)c1ccc(C(=O)NCCNc2ncccn2)cc1,-5.014
Cn1cnnc1S(=O)(=O)C1CCN(C(=O)c2cccs2)CC1,-60.03
Cc1nc(C2CCCN(C(=O)c3cccc4c3OCCO4)C2)no1 (stereo unspecified),-6.669
Cc1cc(C[C@@H]2CCC[C@H]2NCc2cc(C)c(O)c(C)c2)on1.O=C(O)CC(O)(CC(=O)O)C(=O)O,8.557
CC(Cc1ccco1)NC(=O)Nc1ccc(N2CCOCC2)nc1 (stereo unspecified),15.33
CCNc1cc2c(nn1)CCN(C(=O)c1cc3cc(C)ccc3o1)C2,30.23
CCC1CN(C)c2ccccc2CN1C(=O)Nc1ccc(C)cc1 (stereo unspecified),-4.961
O=C(O)C(F)(F)F.[H][C@@]12CCCO[C@]1([H])[C@H](NC(=O)CC1CC1)CN(c1ncccn1)C2,-17.52
[H][C@@]12CCN(C(=O)c3cc(C)[nH]c3C)C[C@@]1([H])O[C@@H](c1ccncn1)C2,36.61
CSCC[C@@H](CO)NC(=O)c1sc(-c2ccccc2Cl)nc1C,-13.22
CC(Cc1cn(CCc2nnn[nH]2)nn1)c1ccccc1 (stereo unspecified),-19.8
Cc1cc(-c2cnc(N3CCSCC3)nc2C(C)C)on1,-15.33
CCn1ncc(NC(=O)c2cc(C3CC3)nc3c2c(C)nn3C)c1C,7.629
Cc1cccc(CS(=O)(=O)CC(=O)N(C)Cc2ccccc2F)c1,25.89
O=C(NCCn1cccc1)C1CCCN(C2CCCC2)C1 (stereo unspecified),-24.84
O=C(NC[C@H]1OC[C@@H](NC2CCC(F)(F)CC2)[C@@H]1O)C1CC1,-3.668
COC(=O)CCC(=O)N1CCc2nc(C(=O)N3CCCCC3)sc2CC1,-56.28
COCc1nc(C(=O)N2CCN(Cc3ccsc3)CC2)cs1,-31.78
COCCN1CCC(CNc2cnc3ccccc3n2)CC1,-13.67
O=C(O)C(F)(F)F.O=C(O)C(F)(F)F.[H][C@]12CC(=O)N(Cc3cccc(C)n3)[C@@]1([H])CCN2Cc1ccco1,-47.4
CCN(CC)C(CNS(=O)(=O)c1ccc(C(C)=O)cc1)c1ccco1 (stereo unspecified),-6.153
CSCC(C)(O)CNC(=O)c1ccc(F)cc1Cl (stereo unspecified),-19.42
OC1(CNCCSCc2ccccc2)CCCNC1 (stereo unspecified),28.74
COc1cc2c(nn1)CCN(Cc1nnc(Cc3ccccc3)o1)C2,-28.43
CCn1ncnc1C(NC(=O)CC1CCN(C(C)C)CC1)C1CC1 (stereo unspecified),-12.66
Cc1cccc2[nH]c(-c3cn(C4CCNCC4)nn3)nc12,-21.72
[H][C@@]12CCN(c3cccc(C)n3)C[C@]1([H])[C@@H](CN(C)Cc1ccco1)OC2,-6.332
Cc1noc(C)c1CN1CCOCC12CCN(c1nccs1)CC2.O=C(O)C(F)(F)F,-82.43
CN1CCc2nc(C3CCCN(S(=O)(=O)N4CCCC4)C3)ncc2C1 (stereo unspecified),6.442
Cc1nc(C)c(C(=O)N2Cc3cc(F)ccc3CC2C)o1 (stereo unspecified),-33.69
Cc1cc(NC(=O)C(C)N2CCN(c3ccccc3F)CC2)no1 (stereo unspecified),-17.92
COC(=O)c1ccc(N2CCN(CC(=O)NC(N)=O)C(C)C2)cc1 (stereo unspecified),-13.55
CC(C)c1nc(N2CC(N3CCCCC3C)C2)c2cnn(C)c2n1 (stereo unspecified),-17.45
c1csc(SCC2CN=C(N3CCOCC3)S2)c1 (stereo unspecified),1.422
Cc1ccnc(CC(C)N(C)Cc2ccc3c(c2)OCCO3)c1 (stereo unspecified),-12.28
CSCc1cc(C(=O)NC2(C#N)CC2)ccc1F,5.642
CCN(CC)S(=O)(=O)c1ccc(CNc2cc(C)nc(C)n2)cc1,-16.36
CC(C)(C)CC(=O)NCC(=O)Nc1ccn(Cc2ccccc2)n1,-49.16
CCc1ocnc1C(=O)N1CCOC(CCCC(C)C)C1 (stereo unspecified),-9.315
N#Cc1csc(CNCCOc2ncccc2Cl)c1,-13.97
COc1cccc(CCC2CCCN(C(=O)c3ccc(=O)n(C)n3)C2)c1 (stereo unspecified),-65.74
Cc1nc(N(C)CCN(C)C)c2cnn(C)c2n1,-228.6
[H][C@@]12CS(=O)(=O)C[C@]1([H])N(Cc1nc(C)n[nH]1)CCN2C(=O)C1CCC1,-5.026
CC1CCC(O)(Cn2ncnc2-c2cccc(C#N)c2)CC1 (stereo unspecified),-0.1579
Cc1cnc(CN(C)C2CCN(CCCc3ccccc3)C2)o1 (stereo unspecified),-6.339
Fc1cccc(-c2noc3c2CN(Cc2cncn2C2CC2)CC3)c1,24.68
CCOc1ncccc1C(=O)N1CCC(Nc2ccc(C)nn2)CC1,1.842
Cc1nc(C(C)C)sc1C(=O)NCCSc1ccccn1,-15.24
CCOc1ccc(C(=O)CCC(=O)N(C)Cc2nc(C)c[nH]2)cc1C,11.12
Cc1ccc(C)c(CS(=O)(=O)Cc2ccn(C)c(=O)c2)c1,-17.66
CN(C)c1ncccc1CNC(=O)NCc1ccco1,-28.64
N#Cc1ncn(CCC(=O)Nc2c(Cl)cccc2Cl)n1,-3.151
CC(=O)Nc1ccc(-c2ccccc2CCN)cc1,-36.17
CCS(=O)(=O)N1CCC2(CC(=O)N(c3cncnc3)C2)C1 (stereo unspecified),-9.126
FC(F)(F)c1ccc(CNC[C@H]2COCc3nc4cccnc4n32)cc1,29.57
Cc1cnn(CCC(=O)N2CCN(c3nc(C)cs3)CC2)c1,21.52
O=C(COCC(F)(F)C(F)F)N1CCC2(CCCN(CCO)C2=O)C1 (stereo unspecified),-17.4
Cc1cnn(CC(C)NCc2csc(-c3ccco3)n2)c1 (stereo unspecified),-11.89
CCCNC(=O)COc1cc(C)c2c(C)nn(-c3ccccc3)c2n1,-2.634
CC(=O)NCC(=O)N1CCOC2(CCCN(c3cccnc3)C2)C1.O=C(O)C(F)(F)F (stereo unspecified),-9.811
CC(c1nc(C2CC2)no1)N1CCN(Cc2cccc(C#N)c2)CC1 (stereo unspecified),-11.03
CCn1cnnc1C1CCN(C(=O)c2cccc(C)c2C)CC1,-32.59
COC(=O)NCC(=O)N(C)Cc1csc(-c2cccs2)n1,-5.949
O=C(NCCc1nnc2n1CCC2)N1CCC2(CCCCC2)C1,-13.71
CS(=O)(=O)NC1CCN(C(=O)NCC2CCCO2)CC1 (stereo unspecified),-64.67
COCCC1COC2(CCN(C(=O)c3cccn3C)CC2)C1 (stereo unspecified),-174.2
COc1cccc(CNCc2nnc3n2CC(C(F)(F)F)CC3)c1 (stereo unspecified),-16.06
CCn1nc(C)c(-c2cncn2Cc2ccccc2CN(C)C)c1C.Cl,2.779
COc1cccc(CCC(=O)N2CCN(Cc3noc(C)n3)CC2)c1,-60.59

Once more, the final 4:

structure	effect
COCCC1COC2(CCN(C(=O)c3cccn3C)CC2)C1 (stereo unspecified)	-174.2
COc1cccc(CNCc2nnc3n2CC(C(F)(F)F)CC3)c1 (stereo unspecified)	-16.06
CCn1nc(C)c(-c2cncn2Cc2ccccc2CN(C)C)c1C.Cl	2.779
COc1cccc(CCC(=O)N2CCN(Cc3noc(C)n3)CC2)c1	-60.59

Source: ChEMBL document CHEMBL3988442, “University of Dundee, Small-Polar-MMV Screening Library” (2021).